Data reported in the supplement of paper PMC8728848.
This is one part of the list.

Key:
Assay in all cases: glycan array binding signal (z-score within array); higher = stronger binding
Conditions in all cases: glycan notation: IUPAC condensed, linker removed
[1] = target: GlcNAc(b1-3)Gal(b1-4)Glc
How it was run: (§1)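 From the Consortium for Functional Glycomics database, 3228 arrays were curated, keeping only those whose protein sequence was available. Binding is given as a within-array Z-score averaged across arrays sharing a protein sequence and across linkers. Negative Z-scores can be read as non-binding.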

[2] = target: GlcNAc(b1-3)Gal(b1-4)GlcNAc
How it was run: as §1

[3] = target: GlcNAc(b1-3)Gal(b1-4)GlcNAc(b1-2)Man(a1-3)[GlcNAc(b1-3)Gal(b1-4)GlcNAc(b1-2)Man(a1-6)]Man(b1-4)GlcNAc(b1-4)GlcNAc
How it was run: as §1

[4] = target: GlcNAc(b1-3)Gal(b1-4)GlcNAc(b1-2)Man(a1-3)[GlcNAc(b1-3)Gal(b1-4)GlcNAc(b1-2)Man(a1-6)]Man(b1-4)GlcNAc(b1-4)[Fuc(a1-6)]GlcNAc
How it was run: as §1

[5] = target: GlcNAc(b1-3)Gal(b1-4)GlcNAc(b1-2)[GlcNAc(b1-3)Gal(b1-4)GlcNAc(b1-6)]Man(a1-6)[GlcNAc(b1-3)Gal(b1-4)GlcNAc(b1-2)Man(a1-3)]Man(b1-4)GlcNAc(b1-4)GlcNAc
How it was run: as §1

[6] = target: GlcNAc(b1-3)Gal(b1-4)GlcNAc(b1-3)Gal(b1-4)GlcNAc
How it was run: as §1

[7] = target: GlcNAc(b1-3)Gal(b1-4)GlcNAc(b1-3)Gal(b1-4)GlcNAc(b1-2)Man(a1-3)[GlcNAc(b1-3)Gal(b1-4)GlcNAc(b1-3)Gal(b1-4)GlcNAc(b1-2)Man(a1-6)]Man(b1-4)GlcNAc(b1-4)GlcNAc
How it was run: as §1

[8] = target: GlcNAc(b1-3)Gal(b1-4)GlcNAc(b1-3)Gal(b1-4)GlcNAc(b1-2)Man(a1-3)[GlcNAc(b1-3)Gal(b1-4)GlcNAc(b1-3)Gal(b1-4)GlcNAc(b1-2)Man(a1-6)]Man(b1-4)GlcNAc(b1-4)[Fuc(a1-6)]GlcNAc
How it was run: as §1

[9] = target: GlcNAc(b1-3)Gal(b1-4)GlcNAc(b1-3)Gal(b1-4)GlcNAc(b1-2)[GlcNAc(b1-3)Gal(b1-4)GlcNAc(b1-3)Gal(b1-4)GlcNAc(b1-6)]Man(a1-6)[GlcNAc(b1-3)Gal(b1-4)GlcNAc(b1-3)Gal(b1-4)GlcNAc(b1-2)Man(a1-3)]Man(b1-4)GlcNAc(b1-4)[Fuc(a1-6)]GlcNAc
How it was run: as §1

[10] = target: GlcNAc(b1-3)Gal(b1-4)GlcNAc(b1-3)Gal(b1-4)GlcNAc(b1-3)Gal(b1-4)GlcNAc(b1-2)Man(a1-3)[GlcNAc(b1-3)Gal(b1-4)GlcNAc(b1-3)Gal(b1-4)GlcNAc(b1-3)Gal(b1-4)GlcNAc(b1-2)Man(a1-6)]Man(b1-4)GlcNAc(b1-4)GlcNAc
How it was run: as §1

[11] = target: GlcNAc(b1-3)Gal(b1-4)GlcNAc(b1-3)Gal(b1-4)GlcNAc(b1-3)Gal(b1-4)GlcNAc(b1-2)Man(a1-3)[GlcNAc(b1-3)Gal(b1-4)GlcNAc(b1-3)Gal(b1-4)GlcNAc(b1-3)Gal(b1-4)GlcNAc(b1-2)Man(a1-6)]Man(b1-4)GlcNAc(b1-4)[Fuc(a1-6)]GlcNAc
How it was run: as §1

[12] = target: GlcNAc(b1-3)Gal(b1-4)GlcNAc(b1-3)Gal(b1-4)GlcNAc(b1-3)Gal(b1-4)GlcNAc(b1-2)[GlcNAc(b1-3)Gal(b1-4)GlcNAc(b1-3)Gal(b1-4)GlcNAc(b1-3)Gal(b1-4)GlcNAc(b1-6)]Man(a1-6)[GlcNAc(b1-3)Gal(b1-4)GlcNAc(b1-3)Gal(b1-4)GlcNAc(b1-3)Gal(b1-4)GlcNAc(b1-2)Man(a1-3)]Man(b1-4)GlcNAc(b1-4)[Fuc(a1-6)]GlcNAc
How it was run: as §1

[13] = target: GlcNAc(b1-3)Gal(b1-4)GlcNAc(b1-3)Gal(b1-4)GlcNAc(b1-3)Gal(b1-4)GlcNAc(b1-3)Gal(b1-4)GlcNAc(b1-2)Man(a1-3)[GlcNAc(b1-3)Gal(b1-4)GlcNAc(b1-3)Gal(b1-4)GlcNAc(b1-3)Gal(b1-4)GlcNAc(b1-3)Gal(b1-4)GlcNAc(b1-2)Man(a1-6)]Man(b1-4)GlcNAc(b1-4)GlcNAc
How it was run: as §1

[14] = target: GlcNAc(b1-3)Gal(b1-4)GlcNAc(b1-3)Gal(b1-4)GlcNAc(b1-3)Gal(b1-4)GlcNAc(b1-3)Gal(b1-4)GlcNAc(b1-2)Man(a1-3)[GlcNAc(b1-3)Gal(b1-4)GlcNAc(b1-3)Gal(b1-4)GlcNAc(b1-3)Gal(b1-4)GlcNAc(b1-3)Gal(b1-4)GlcNAc(b1-2)Man(a1-6)]Man(b1-4)GlcNAc(b1-4)[Fuc(a1-6)]GlcNAc
How it was run: as §1

[15] = target: GlcNAc(b1-3)Gal(b1-4)GlcNAc(b1-3)Gal(b1-4)GlcNAc(b1-3)Gal(b1-4)GlcNAc(b1-3)Gal(b1-4)GlcNAc(b1-2)[GlcNAc(b1-3)Gal(b1-4)GlcNAc(b1-3)Gal(b1-4)GlcNAc(b1-3)Gal(b1-4)GlcNAc(b1-3)Gal(b1-4)GlcNAc(b1-6)]Man(a1-6)[GlcNAc(b1-3)Gal(b1-4)GlcNAc(b1-3)Gal(b1-4)GlcNAc(b1-3)Gal(b1-4)GlcNAc(b1-3)Gal(b1-4)GlcNAc(b1-2)Man(a1-3)]Man(b1-4)GlcNAc(b1-4)[Fuc(a1-6)]GlcNAc
How it was run: as §1

[16] = target: GlcNAc(b1-3)Gal(b1-4)GlcNAc(b1-3)Gal(b1-4)GlcNAc(b1-3)GalNAc
How it was run: as §1

[17] = target: GlcNAc(b1-3)Gal(b1-4)GlcNAc(b1-3)GalNAc
How it was run: as §1

[18] = target: GlcNAc(b1-3)Gal(b1-4)GlcNAc(b1-3)[GlcNAc(b1-3)Gal(b1-4)GlcNAc(b1-3)]GalNAc
How it was run: as §1

[19] = target: GlcNAc(b1-3)Gal(b1-4)GlcNAc(b1-6)[Gal(b1-3)]GalNAc
How it was run: as §1

[20] = target: GlcNAc(b1-3)Gal(b1-4)GlcNAc(b1-6)[GlcNAc(b1-3)Gal(b1-3)]GalNAc
How it was run: as §1

[21] = target: GlcNAc(b1-3)Gal(b1-4)GlcNAc(b1-6)[GlcNAc(b1-3)]Gal(b1-4)GlcNAc
How it was run: as §1

[22] = target: GlcNAc(b1-3)GalNAc
How it was run: as §1

[23] = target: GlcNAc(b1-3)Man
How it was run: as §1

[24] = target: GlcNAc(b1-3)[GlcNAc(b1-4)][GlcNAc(b1-6)]GlcNAc
How it was run: as §1

[25] = target: GlcNAc(b1-3)[GlcNAc(b1-6)]Gal(b1-4)GlcNAc
How it was run: as §1

[26] = target: GlcNAc(b1-3)[GlcNAc(b1-6)]GalNAc
How it was run: as §1

[27] = target: GlcNAc(b1-4)Gal(b1-4)GlcNAc
How it was run: as §1

[28] = target: GlcNAc(b1-4)GlcNAc
How it was run: as §1

[29] = target: GlcNAc(b1-4)GlcNAc(b1-4)GlcNAc
How it was run: as §1

[30] = target: GlcNAc(b1-4)GlcNAc(b1-4)GlcNAc(b1-4)GlcNAc(b1-4)GlcNAc
How it was run: as §1

[31] = target: GlcNAc(b1-4)GlcNAc(b1-4)GlcNAc(b1-4)GlcNAc(b1-4)GlcNAc(b1-4)GlcNAc
How it was run: as §1

[32] = target: GlcNAc(b1-4)[GlcNAc(b1-6)]GalNAc
How it was run: as §1

[33] = target: GlcNAc(b1-6)Gal(b1-4)GlcNAc
How it was run: as §1

[34] = target: GlcNAc(b1-6)GalNAc
How it was run: as §1

[35] = target: GlcNAc6S(b1-3)Gal(b1-4)GlcNAc
How it was run: as §1

[36] = target: Kdn(a2-3)Gal(b1-3)GalNAc
How it was run: as §1

[37] = target: Kdn(a2-3)Gal(b1-3)GlcNAc
How it was run: as §1

B1: Gs78B-bfa-542-29-542 (Bacteroides fragilis) (protein)
chain: SEDINRNPLLPTKEDEKMDGVIYGAYLPNLEKSVIPIGTASESTEPVNRYQIGVNLAGDAWAGYMSPRDNKFNGSKNFTNYFMYENWVNYVYSFMVTDVYSPWMQIKRISQDEGTRNDEIYALAQIIKIAALHRTTDMFGPIPYSQVGKGSFKVAYDSQESVYRSFLKELEEAVQTLDDYSNKSKEVLPAFDIVYNGDVNKWMRFANSLMLRLAIRVRFADAGLAKEYAEKAVKHPAGLINSKELAAQMGKGAGLQMKNPLKVINEEYNDTRMGATIYSYLAGYNDARAAVYFVKNNGFKAVRCGIAKSGDAYNGFTRPNVHEDDPLYWMKASEVCFLKAEGALAGFDMGGSAGDFYNAGIRMSFSENGLDNSSAETYLKDSTRKPANYTDTSNGELSANAPSSITIRWENGATEEEKLERIITQKYLAIFPNGQEAWTEWRRTGYPRQIVVAENKTNSAVLIGNGYDLGGVRRLPYPRTEYEQNGENLHNAISQYLGGVDNAATKVWWDKKSK
glycan array binding signal (z-score) [1]: -0.79
glycan array binding signal (z-score) [2]: -0.816
glycan array binding signal (z-score) [3]: -0.439
glycan array binding signal (z-score) [4]: 0.908
glycan array binding signal (z-score) [5]: -0.485
glycan array binding signal (z-score) [6]: -0.853
glycan array binding signal (z-score) [7]: 0.604
glycan array binding signal (z-score) [8]: -0.713
glycan array binding signal (z-score) [9]: -0.569
glycan array binding signal (z-score) [10]: 1.64
glycan array binding signal (z-score) [11]: -0.317
glycan array binding signal (z-score) [12]: -0.497
glycan array binding signal (z-score) [13]: 0.274
glycan array binding signal (z-score) [14]: 0.697
glycan array binding signal (z-score) [15]: 0.21
glycan array binding signal (z-score) [16]: -0.855
glycan array binding signal (z-score) [17]: -0.156
glycan array binding signal (z-score) [18]: -0.098
glycan array binding signal (z-score) [19]: 0.651
glycan array binding signal (z-score) [20]: -0.669
glycan array binding signal (z-score) [21]: -0.815
glycan array binding signal (z-score) [22]: -0.762
glycan array binding signal (z-score) [23]: -0.383
glycan array binding signal (z-score) [24]: -0.664
glycan array binding signal (z-score) [25]: -0.833
glycan array binding signal (z-score) [26]: -0.806
glycan array binding signal (z-score) [27]: -0.828
glycan array binding signal (z-score) [28]: -0.751
glycan array binding signal (z-score) [29]: -0.801
glycan array binding signal (z-score) [30]: -0.841
glycan array binding signal (z-score) [31]: -0.83
glycan array binding signal (z-score) [32]: -0.795
glycan array binding signal (z-score) [33]: 0.621
glycan array binding signal (z-score) [34]: -0.233
glycan array binding signal (z-score) [35]: 1.83
glycan array binding signal (z-score) [36]: 0.54
glycan array binding signal (z-score) [37]: -0.533
